Data: publication doi:10.1101/2025.10.25.683839
No constants are given. Whether binding was seen depends on the method and setting. In cells and extracts the contact can be indirect. Some results given as binding are weak or reduced against the parent protein; the word gives no strength.

Target: T1, STimulator of INterferon Gene (STING) (mouse (endogenous in BMDMs)) (UniProt Q3TBT3)
T1 sequence: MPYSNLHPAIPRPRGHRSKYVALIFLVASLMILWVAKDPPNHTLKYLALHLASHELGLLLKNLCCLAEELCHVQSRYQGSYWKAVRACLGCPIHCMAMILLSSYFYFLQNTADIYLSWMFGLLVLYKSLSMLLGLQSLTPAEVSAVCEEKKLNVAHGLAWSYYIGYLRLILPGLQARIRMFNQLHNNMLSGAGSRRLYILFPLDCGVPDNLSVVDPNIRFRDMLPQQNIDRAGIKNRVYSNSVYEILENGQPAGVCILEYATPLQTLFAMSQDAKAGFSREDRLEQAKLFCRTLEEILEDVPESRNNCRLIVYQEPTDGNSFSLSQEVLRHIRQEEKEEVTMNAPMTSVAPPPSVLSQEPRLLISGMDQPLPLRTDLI
Experiment: co-IP

binding: binds
B1: Heme oxygenase-1 (protein, UniProt P14901 1-289)
chain: MERPQPDSMPQDLSEALKEATKEVHIQAENAEFMKNFQKGQVSREGFKLVMASLYHIYTALEEEIERNKQNPVYAPLYFPEELHRRAALEQDMAFWYGPHWQEIIPCTPATQHYVKRLHEVGRTHPELLVAHAYTRYLGDLSGGQVLKKIAQKAMALPSSGEGLAFFTFPNIDSPTKFKQLYRARMNTLEMTPEVKHRVTEEAKTAFLLNIELFEELQVMLTEEHKDQSPSQMASLRQRPASLVQDTAPAETPRGKPQISTSSSQTPLLQWVLTLSFLLATVAVGIYAM
